PubChem BioAssay AID1259308 | NCATS | 2017
The whole screen tested about 59,000 reagents; shown is a part drawn at random. About 1,510 of all reagents (2.6%) were called active. 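Calls use total luciferase alone and ignore viability, so some active siRNAs may act by altering cell number.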 The numbers tell different reagents against one gene apart. Not all columns of the deposit are shown.

- Screen: 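Knock-downs that increase output of a recombinant reporter protein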 (primary screen)
- System: human HEK293 embryonic kidney cells stably expressing firefly luciferase (HEK-CMV-Luc2-Hygro)
- Knock-down reagent: single siRNA against human genes, 0.8 pmol siRNA per well
- Timing: 72 h
- Measured: 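Reporter luminescence and viable-cell signal on separate replicate plates, given as percent of non-targeting control and median/MAD z-scores, plus per-cell luciferase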
- Direction: total luciferase, z-score: higher = more reporter protein produced
- Call rule: 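An siRNA counts as active if its total luciferase robust z-score exceeds 3; genes with two or more such siRNAs out of three were retested with fresh siRNAs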
- Meaning of the calls: active = raised luciferase; inactive = no rise

Against COG4 #1, the entry reads total luciferase, z-score 1.1; inactive. With knock-down of COG4 #2, the record shows total luciferase, z-score -0.609; inactive. COG4 #3 scored total luciferase, z-score -1.9; inactive. ALYREF #1 showed total luciferase, z-score -0.841; inactive. ALYREF #2 scored total luciferase, z-score -0.0569; inactive. After knock-down of ALYREF #3, the record shows total luciferase, z-score -1.37; inactive.

OSBPL1A #1 scored total luciferase, z-score -0.529; inactive. Silencing of OSBPL1A #2 gave: total luciferase, z-score -0.196; inactive. Depletion of OSBPL1A #3 gave: total luciferase, z-score -0.63; inactive. Against MIR22HG #1, the values are total luciferase, z-score -0.164; inactive. Knock-down of MIR22HG #2 resulted in: total luciferase, z-score 0.942; inactive. With knock-down of MIR22HG #3, the screen gave total luciferase, z-score 0.232; inactive.

Knock-down of PPP1R27 #1 resulted in: total luciferase, z-score -1.75; inactive. PPP1R27 #2 scored total luciferase, z-score 0.948; inactive. With knock-down of PPP1R27 #3, the record shows total luciferase, z-score 0.418; inactive. ALDH4A1 #1 showed total luciferase, z-score -0.618; inactive. Against ALDH4A1 #2, the values are total luciferase, z-score -2.03; inactive. ALDH4A1 #3 scored total luciferase, z-score 0.67; inactive.

TMEM177 #1 scored total luciferase, z-score -0.34; inactive. Depletion of TMEM177 #2 came out at: total luciferase, z-score 1.42; inactive. Against TMEM177 #3, the entry reads total luciferase, z-score -0.335; inactive.

4 entries from above, sorted by “total luciferase, z-score”, descending.
ALYREF #2 → total luciferase, z-score = -0.0569; call = inactive
OSBPL1A #1 → total luciferase, z-score = -0.529; call = inactive
ALYREF #1 → total luciferase, z-score = -0.841; call = inactive
ALYREF #3 → total luciferase, z-score = -1.37; call = inactive

More reagents:
For EMG1 #1, the values are total luciferase, z-score -0.799; inactive. With knock-down of EMG1 #2, the screen gave total luciferase, z-score -1.21; inactive. EMG1 #3 showed total luciferase, z-score -0.589; inactive. With knock-down of HNRNPDL #1, the screen gave total luciferase, z-score 4.58; active. Knock-down of HNRNPDL #2 resulted in: total luciferase, z-score -0.541; inactive. HNRNPDL #3 gave total luciferase, z-score 3.55; active.

After knock-down of SLFN12L #1 the results were total luciferase, z-score 0.428; inactive. SLFN12L #2 showed total luciferase, z-score 1.85; inactive. SLFN12L #3 showed total luciferase, z-score -0.316; inactive. After knock-down of ARHGEF25 #1, the screen gave total luciferase, z-score -0.669; inactive. With knock-down of ARHGEF25 #2 the results were total luciferase, z-score -1.62; inactive. ARHGEF25 #3 gave total luciferase, z-score 0.822; inactive.
